{
  "source": "paper PMC5585206",
  "key": {"[1]": {"molecular_target": "T1, IKKε (human (from the printed accession Q14164)) (UniProt Q14164)", "T1 sequence": "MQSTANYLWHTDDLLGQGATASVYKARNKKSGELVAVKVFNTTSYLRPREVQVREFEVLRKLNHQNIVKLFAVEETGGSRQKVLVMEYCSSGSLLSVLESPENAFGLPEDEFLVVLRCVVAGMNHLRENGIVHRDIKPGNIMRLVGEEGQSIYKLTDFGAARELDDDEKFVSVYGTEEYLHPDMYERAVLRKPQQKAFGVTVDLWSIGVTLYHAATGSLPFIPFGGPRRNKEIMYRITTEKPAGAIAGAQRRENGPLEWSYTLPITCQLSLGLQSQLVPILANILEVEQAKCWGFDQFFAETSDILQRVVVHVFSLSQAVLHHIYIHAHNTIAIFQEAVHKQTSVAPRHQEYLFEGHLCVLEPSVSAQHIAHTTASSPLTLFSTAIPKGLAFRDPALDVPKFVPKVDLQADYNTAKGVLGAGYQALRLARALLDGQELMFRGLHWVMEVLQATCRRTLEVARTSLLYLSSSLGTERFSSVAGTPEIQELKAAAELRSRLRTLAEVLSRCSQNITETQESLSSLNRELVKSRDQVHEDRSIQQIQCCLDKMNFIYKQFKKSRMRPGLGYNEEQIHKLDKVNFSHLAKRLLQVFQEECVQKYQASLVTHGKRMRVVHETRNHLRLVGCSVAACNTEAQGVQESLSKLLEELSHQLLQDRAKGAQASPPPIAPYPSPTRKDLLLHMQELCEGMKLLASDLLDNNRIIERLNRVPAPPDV", "experiment": "co-IP"}, "[2]": {"molecular_target": "T2, TANK-binding kinase 1 (TBK1) (human (from the printed accession Q9UHD2)) (UniProt Q9UHD2)", "T2 sequence": "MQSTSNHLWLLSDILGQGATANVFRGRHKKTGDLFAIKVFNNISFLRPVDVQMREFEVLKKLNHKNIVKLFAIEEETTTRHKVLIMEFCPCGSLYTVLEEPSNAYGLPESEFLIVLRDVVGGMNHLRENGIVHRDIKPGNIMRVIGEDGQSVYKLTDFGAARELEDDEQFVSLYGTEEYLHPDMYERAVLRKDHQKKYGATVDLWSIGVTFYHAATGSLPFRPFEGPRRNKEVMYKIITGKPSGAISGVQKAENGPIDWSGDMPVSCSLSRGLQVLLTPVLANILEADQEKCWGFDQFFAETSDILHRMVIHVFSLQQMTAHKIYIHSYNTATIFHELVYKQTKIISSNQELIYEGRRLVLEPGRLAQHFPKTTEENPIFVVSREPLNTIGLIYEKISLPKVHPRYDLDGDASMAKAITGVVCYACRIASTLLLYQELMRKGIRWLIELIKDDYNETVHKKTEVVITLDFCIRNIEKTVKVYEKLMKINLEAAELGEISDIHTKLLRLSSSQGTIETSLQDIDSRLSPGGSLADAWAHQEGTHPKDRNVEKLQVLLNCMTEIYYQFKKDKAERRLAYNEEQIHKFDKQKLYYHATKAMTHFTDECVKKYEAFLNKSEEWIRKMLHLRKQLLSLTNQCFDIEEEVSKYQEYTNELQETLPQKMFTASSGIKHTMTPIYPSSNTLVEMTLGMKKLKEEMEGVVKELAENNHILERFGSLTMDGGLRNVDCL", "experiment": "co-IP"}},
  "note": "No constants are given. Whether binding was seen depends on the method and setting. In cells and extracts the contact can be indirect. Some binding calls cover weakened binding; strength is not graded here.",
  "data": [
    {"substance": "cytokine response modifier A (CrmA) (from UniProt P07385 1-341)", "values": [
      {"measurement": "binding", "setting": "[1]", "result": "binds"},
      {"measurement": "binding", "setting": "[2]", "result": "binds"}
    ]}
  ]
}
